Holding throughout (experiment): EMSA
In general terms: In EMSA bound probe runs differently from free probe, usually more slowly.

The target in data set [1] is T1, MBP-Orf W50A (Bacteriophage lambda) (UniProt P03765).
T1 sequence (looked up): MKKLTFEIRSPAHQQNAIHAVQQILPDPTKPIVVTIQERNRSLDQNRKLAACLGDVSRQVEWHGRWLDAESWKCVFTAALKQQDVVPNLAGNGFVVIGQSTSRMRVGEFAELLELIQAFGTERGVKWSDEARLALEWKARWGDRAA
Particulars: EMSA: 50 mM Tris-HCl pH 8.0, 5 mM EDTA (or 1 mM MgCl2), 1 mM DTT, 5% glycerol, 100 ug/ml BSA, on ice 15 min, 4% PAGE, recombinant protein, residues 1-146, protein details: N-terminal MBP.

Data set [2] addresses T2, MBP-Orf R103E (Bacteriophage lambda) (UniProt P03765).
T2 sequence (looked up): T1 sequence (looked up) with A50W, R103E
Particulars: 250 nM, EMSA: 50 mM Tris-HCl pH 8.0, 5 mM EDTA (or 1 mM MgCl2), 1 mM DTT, 5% glycerol, 100 ug/ml BSA, on ice 15 min, 4% PAGE, recombinant protein, residues 1-146, protein details: N-terminal MBP, label: 5'-32P on strand 1.

Data set [3] has as its target T3, MBP-Orf K48A (Bacteriophage lambda) (UniProt P03765).
T3 sequence (looked up): T1 sequence (looked up) with K48A, A50W
Particulars: EMSA: 50 mM Tris-HCl pH 8.0, 5 mM EDTA (or 1 mM MgCl2), 1 mM DTT, 5% glycerol, 100 ug/ml BSA, on ice 15 min, 4% PAGE, recombinant protein, residues 1-146, protein details: N-terminal MBP.

In data set [4] the target is T4, MBP-Orf Q45A (Bacteriophage lambda) (UniProt P03765).
T4 sequence (looked up): T1 sequence (looked up) with Q45A, A50W
Particulars: EMSA: 50 mM Tris-HCl pH 8.0, 5 mM EDTA (or 1 mM MgCl2), 1 mM DTT, 5% glycerol, 100 ug/ml BSA, on ice 15 min, 4% PAGE, recombinant protein, residues 1-146, protein details: N-terminal MBP.

The target in data set [5] is T5, MBP-Orf W137A (Bacteriophage lambda) (UniProt P03765).
T5 sequence (looked up): T1 sequence (looked up) with A50W, W137A
As to conditions: EMSA: 50 mM Tris-HCl pH 8.0, 5 mM EDTA (or 1 mM MgCl2), 1 mM DTT, 5% glycerol, 100 ug/ml BSA, on ice 15 min, recombinant protein, residues 1-146, protein details: N-terminal MBP.

The target in data set [6] is T6, MBP-Orf V106E (Bacteriophage lambda) (UniProt P03765).
T6 sequence (looked up): T1 sequence (looked up) with A50W, V106E
As to conditions: EMSA: 50 mM Tris-HCl pH 8.0, 5 mM EDTA (or 1 mM MgCl2), 1 mM DTT, 5% glycerol, 100 ug/ml BSA, on ice 15 min, 4% PAGE, recombinant protein, residues 1-146, protein details: N-terminal MBP.

In data set [7] the target is T7, MBP-Orf (Bacteriophage lambda) (UniProt P03765).
T7 sequence (looked up): T1 sequence (looked up) with A50W
Particulars: EMSA: 50 mM Tris-HCl pH 8.0, 5 mM EDTA (or 1 mM MgCl2), 1 mM DTT, 5% glycerol, 100 ug/ml BSA, on ice 15 min, 4% PAGE, recombinant protein, residues 1-146, protein details: N-terminal MBP.

The next data set concerns the target T8, MBP-YbcN (UniProt Q47269).
T8 sequence (looked up, limits assumed): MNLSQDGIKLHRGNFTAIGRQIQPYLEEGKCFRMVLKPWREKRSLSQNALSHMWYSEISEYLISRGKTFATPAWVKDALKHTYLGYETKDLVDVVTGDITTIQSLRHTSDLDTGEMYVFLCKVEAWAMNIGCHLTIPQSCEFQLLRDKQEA
As to conditions: EMSA: 50 mM Tris-HCl pH 8.0, 5 mM EDTA (or 1 mM MgCl2), 1 mM DTT, 5% glycerol, 100 ug/ml BSA, on ice 15 min, 4% PAGE, recombinant protein, protein details: N-terminal MBP.

[8] abbreviates: 250 nM, little or no association, label: 5'-32P on strand 1.
[9] abbreviates: 5 mM EDTA, label: 5'-32P on strand 1.
The mark [10] stands for this setting: 1 mM MgCl2, label: 5'-32P, single-stranded DNA.
Where [11] appears, read: 5 mM EDTA, severe defect, label: 5'-32P, single-stranded DNA.
Setting [12] is: 5 mM EDTA, no preference over DS60, label: 5'-32P on strand 1, folded or branched DNA.
[13] abbreviates: 250 nM, similarly poor binding, label: 5'-32P on strand 1, folded or branched DNA.
Where [14] appears, read: 5 mM EDTA, no marked improvement with bubble, label: 5'-32P on strand 1, folded or branched DNA.

Substitutions are numbered along the chain they refer to. For some assays here: Negatives hold for the conditions tested. Protein sequences can lack the tags named with them. A weaker result is weaker than the reference pair of the same experiment. For some assays here: The exact form of at least one protein or probe is not confirmed. For some assays here: At least one verdict was read from the data and is not stated in words by the source.

As for “TTTGGTCTAACTTTACCGCTACTAAATGCCGCGGATTGGTTTCGCTGAATCAGGTTATTA (double strand) [DS60]”, the binding result was “no binding” in data set [1] (setting [8]); “no binding” in data set [2] (little or no association); “no binding” in data set [3] (setting [8]); “binds more weakly” in data set [4] (250 nM, less extreme defect, label: 5'-32P on strand 1); “binds more weakly” in data set [5] (250 nM, less extreme defect, 4% PAGE, label: 5'-32P on strand 1); “no binding” in data set [6] (setting [8]). The binding result in data set [7] (setting [9]) is “binds more weakly”.
Turning to “GGCGACGTGATCACCAGATGATTGCTAGGCATGCTTTCCGCAAGAGAAGC [SS50]”, the binding result is recorded as “binds more weakly” in data set [1] (5 mM EDTA, bound only weakly, label: 5'-32P, single-stranded DNA); “binds more weakly” with MBP-YbcN (setting [10]); “binds more weakly” in data set [3] (setting [11]); “binds more weakly” in data set [4] (5 mM EDTA, minor defect, label: 5'-32P, single-stranded DNA); “binds more weakly” in data set [5] (5 mM EDTA, slight reduction, 4% PAGE, label: 5'-32P, single-stranded DNA); “binds more weakly” in data set [6] (setting [11]). Also, the binding result in data set [7] (setting [10]) was “binds more weakly”.
For “TTTGGTCTAACTTTACCGCTACTAAATGCCGCGGATTGGTTTCGCTGAATCAGGTTATTA / TAATAACCTGATTCAGCGAAACCAATCGGCGGCATTTAGTAGCGGTAAAGTTAGACCAAA [MMG:G]”, the binding result in data set [7] (5 mM EDTA, same as DS60, label: 5'-32P on strand 1) is recorded as “binds more weakly”.
For the sequence “TTTGGTCTAACTTTACCGCTACTAAATGCCGCGGATTGGTTTCGCTGAATCAGGTTATTA / TAATAACCTGATTCAGCGAAACCAATCCAAGCGGCATTTAGTAGCGGTAAAGTTAGACCAAA [BT2]”, the binding result with MBP-YbcN (setting [12]) is reported as “binds”; in data set [7] (setting [12]), “binds more weakly”.
Turning to “TTTGGTCTAACTTTACCGCTACTAAATGCCGCGGATTGGTTTCGCTGAATCAGGTTATTA / TAATAACCTGATTCAGCGAATGACCGATAACGTCCACTTGAGCGGTAAAGTTAGACCAAA [BB20]”, the binding result is listed as “binds more weakly” in data set [1] (setting [13]); “binds more weakly” in data set [2] (similarly poor binding, folded or branched DNA); “binds” in the data set with MBP-YbcN (setting [14]); “binds more weakly” in data set [3] (250 nM, small proportion, faster-migrating complex, label: 5'-32P on strand 1, folded or branched DNA); “binds more weakly” in data set [4] (250 nM, complex stability significantly reduced, label: 5'-32P on strand 1, folded or branched DNA); “binds more weakly” in data set [5] (250 nM, complex stability slightly reduced, 4% …, label: 5'-32P on strand 1, folded or branched DNA). For the same sequence, the binding result in data set [6] (setting [13]) is reported as “binds more weakly”.
For “GGCGACGTGATCACCAGATGATTGCTAGGCATGCTTTCCGCAAGAGAAGC (double strand) [DS50]”, the binding result (with MBP-YbcN (setting [9]); in data set [7] (setting [9])) was “binds more weakly” in each case.
In the case of “TTTGGTCTAACTTTACCGCTACTAAATGCCGCGGATTGGTTTCGCTGAATCAGGTTATTA / TAATAACCTGATTCAGCGAAACATTGTAGGTAAGCTTAGTAGCGGTAAAGTTAGACCAAA [BB13]”, the binding result with MBP-YbcN (setting [14]) was “binds”.
Still for that read-out and setting: the result for “TTTGGTCTAACTTTACCGCTACTAAATGCCGCGGATTGGTTTCGCTGAATCAGGTTATTA / TAATAACCTGATTCAGCGAAACCAATCGCAACCATTTAGTAGCGGTAAAGTTAGACCAAA [BB5]” reads “binds”.
As to “TTTGGTCTAACTTTACCGCTACTAAATGCCGCGGATTGGTTTCGCTGAATCAGGTTATTA / TAATAACCTGATTCAGCGAAACCAATCCAGCGGCATTTAGTAGCGGTAAAGTTAGACCAAA [BT1]”, the binding result in the data set with MBP-YbcN (setting [12]) is “binds”; in data set [7] (setting [12]), “binds more weakly”.
As to “TTTGGTCTAACTTTACCGCTACTAAATGCCGCGGATTGGTTTCGCTGAATCAGGTTATTA / TAATAACCTGATTCAGCGAAACCAATCCAAAGCGGCATTTAGTAGCGGTAAAGTTAGACCAAA [BT3]”, the binding result is recorded as “binds” with MBP-YbcN (setting [12]) and “binds more weakly” in data set [7] (setting [12]).
